Assay results taken from patent US8669250B2, “Derivatives of aryl-{4-halogeno-4-[aminomethyl]-piperidin-1-yl}-methanone, their method of preparation and their use as medicinal products” (Pierre Fabre Medicament, priority 2009, dated 2014).
Some results were stated once for a whole list of compounds, not compound by compound.

Tested on: rats, formol-induced pain
Assay: Formol test (analgesic activity, physiological pain)
Assay type: in vivo
Settings: rat, i.p.
Description: The physiological pain model chosen by the inventors to determine the analgesic activity of the compounds of the invention uses excess nociceptive stimuli (injection of formol) to cause a painful sensation in animal (Eur. J. Pharmacol. 2001, 421, 109). For the so-called pathological pain model in animal, the inventors chose to use pain induced by the injection of a cytotoxic agent such as oxaliplatine (Eur. J. Cancer 2007, 2658).
The rats (Male Sprague Dawley rats (ICO: OFA SD [IOPS], Iffa Credo, France) are placed in plexiglass observation boxes above an angled mirror so as to facilitate observation of the hind paws. After thirty minutes of habituation, the animals are given an injection of formol diluted to 2.5% on the plantar surface of the right hind paw. The injection of formol produces behavioural responses which occur in two phases: […]
Quantification of the effect of the compounds of the invention on the forced swimming tests and on the formol test is conducted by one-factor variance analysis between groups (ANOVA analysis) followed by a multiple comparison test (Dunnett's test) versus control animals. The ED50 value is calculated using Litchfield and Wilcoxon analysis from the percentage of responding animals. […]

Compound | dose on and after which paw lifting is prevented in all rats | dose on and after which paw licking is inhibited (acute phase)
O=C(c1ccc(F)c(Cl)c1)N1CCC(F)(CNCC2CNc3ccccc3O2)CC1 (single isomer, unassigned; (-)) [Compound 1a1, (−)-(3-Chloro-4-fluoro-phenyl)-{4-fluoro-4-[(3,4-dihydro-2H-1,4-benzoxazine-2-methanamino)-methyl]-pipéridin-1-yl}-methanone] | ≥ 0.63 mg/kg | 
O=C1CC2(CCCC2)CC(=O)N1CCCCN1CCN(c2ncccn2)CC1 [buspirone, reference compound] |  | ≥ 0.63 mg/kg
